Results on two sequences are retold here after US20150167001.

Amino acid sequences for entries named in this document (tags omitted).
UniProt O75626, whole entry: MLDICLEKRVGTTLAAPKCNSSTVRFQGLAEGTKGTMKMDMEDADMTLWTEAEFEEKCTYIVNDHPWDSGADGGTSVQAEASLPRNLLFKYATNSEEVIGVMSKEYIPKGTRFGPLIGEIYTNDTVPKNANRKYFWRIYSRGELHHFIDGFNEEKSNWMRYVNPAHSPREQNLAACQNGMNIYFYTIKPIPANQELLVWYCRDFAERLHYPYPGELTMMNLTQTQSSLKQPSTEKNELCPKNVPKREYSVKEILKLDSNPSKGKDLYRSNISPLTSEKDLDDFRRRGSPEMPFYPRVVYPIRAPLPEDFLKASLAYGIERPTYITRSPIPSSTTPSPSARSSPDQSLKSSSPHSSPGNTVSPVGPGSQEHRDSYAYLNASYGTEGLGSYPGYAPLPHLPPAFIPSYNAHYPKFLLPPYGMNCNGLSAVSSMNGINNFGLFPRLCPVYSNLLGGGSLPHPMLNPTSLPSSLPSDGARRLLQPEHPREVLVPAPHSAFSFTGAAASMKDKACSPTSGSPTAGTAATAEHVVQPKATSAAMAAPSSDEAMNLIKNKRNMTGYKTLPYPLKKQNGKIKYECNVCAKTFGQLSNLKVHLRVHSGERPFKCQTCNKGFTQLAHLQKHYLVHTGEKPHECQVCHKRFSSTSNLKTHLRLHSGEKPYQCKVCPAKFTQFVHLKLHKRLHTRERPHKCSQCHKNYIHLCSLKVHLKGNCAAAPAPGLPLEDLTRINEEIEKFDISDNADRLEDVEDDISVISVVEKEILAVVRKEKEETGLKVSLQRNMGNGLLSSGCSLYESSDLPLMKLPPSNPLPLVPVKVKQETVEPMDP

Results from cells or extracts need not show a direct contact. A weaker result is weaker than the reference pair of the same experiment.

The target of the series is BLIMP-1 (Homo sapiens) (UniProt O75626). In words: binding assay. Conditions: ChIP-qPCR, protein in cells, protein details: endogenous in BEAS-2B cells.

Take “TAAATAAAATGAAATAAATTGAAAAT (double strand) [IFN-λ1 promoter distal ISRE/PRDI site (F2/R2)]”: the binding result (strongest of three sites, delayed after poly I:C) was “binds”.

“TTCCAATTACCTTTTCACTT (double strand) [IFN-λ1 promoter proximal ISRE/PRDI site (F4/R4)]”: the binding result (modest binding after poly I:C) is recorded as “binds more weakly”.
